In US6610648B2, “Malodor counteractant compositions” (Givaudan SA, priority 2000, dated 2003):

Tests used:
[1] = Perfumer scaling of ease of incorporation into a fragrance composition; parameters: key: 5—Difficult; 3—Acceptable; 1—Very easy; settings: compound at 10% (wt.) in fragrance; judged by a perfumer
[2] = Odor Value (headspace quantity divided by perception threshold); settings: quantity in headspace (ng/l) divided by perception threshold (ng/l)

SMILES | SCORE (ease of incorporation into a fragrance composition without significant distortion) [1] | Odor Value [2]
O=C/C=C/c1ccccc1 [Cinnamic Aldehyde, reference compound] | 5 | (Odor Value = 12000)
C/C(=C\c1ccccc1O)C(=O)OCCC(C)CCc1ccccc1 (centres unmarked) [GR 85-1407] | 3 | 
CC(C)=CCCC(C)CCOC(=O)/C(C#N)=C/c1ccccc1O (centres unmarked) [GR 85-2661] | 3 | 
COc1ccc(OC)c(/C=C/C(=O)OCCC(C)CCC=C(C)C)c1 (centres unmarked) [GR 85-3260] | 1 | 
CCCCC(C)COC(=O)C1=Cc2ccc(OC)cc2CC1 (centres unmarked) [GR 85-6495] | 1 | 
CCCCC(C)COC(=O)c1cc2ccccc2oc1=O (centres unmarked) [GR 85-6924] | 1 | 
CCCCCCOC(=O)c1ccccc1 [Hexyl Benzoate, reference compound] | 3 | (Odor Value = 1000
CCCCCCC(C=O)=Cc1ccccc1 [Hexyl Cinnamic Aldehyde, reference compound] |  | (Odor Value = 384
CCCCC(CC)COC(=O)/C=C/c1ccc(OC)cc1 (centres unmarked) [OMC, Octyl methoxy cinnamate] | 1 | 
